PubChem BioAssay AID504793, Drosophila RNAi Screening Center – 2011
Aim: 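Genes required for cells to halt at G2/M after double-strand DNA breaks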 (primary screen). Cell system: Drosophila S2R+ cells. Reagent: long dsRNA against Drosophila genes, about 0.25 µg dsRNA per well. Time to read-out: 4 days of dsRNA, then 4 hours of drug before read-out. Conditions: doxorubicin 0.5 µM for 4 hours to cause double-strand breaks, in cells also given a low, harmless dose of dsRNA against nbs to sensitise the assay. Read-out: 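Mitotic index as the number of phospho-histone H3-positive cells in each well following doxorubicin, given as raw counts without normalisation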. Direction: mitotic cells: higher = more cells in mitosis, weaker G2 arrest. Call rule: 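Genes are called active only when high mitotic counts were reproduced with independent dsRNAs and mitosis was checked for delay without damage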. Calls: active = confirmed in follow-up tests; inactive = not confirmed.
The deposit covers about 23,000 reagents; shown is an unselected part of those that have a named target and a result. Of all reagents, 62 (0.27%) were called active. 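Calls come from follow-up tests whose scores are not deposited, so confirmed genes may have low counts here; counts are not normalised per plate.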 Raw values vary from plate to plate and are shown uncorrected. Names joined by + are all predicted targets of the reagent.

target gene,dsRNA,"mitotic cells, replicate 1",activity call
Klp10A,DRSC19601,20,inactive
Klp10A,DRSC24185,14,inactive
Nepl7,DRSC02495,9,inactive
Nepl7,DRSC27685,5,inactive
Art4,DRSC15779,4,inactive
Spn42Da,DRSC05025,4,inactive
b6,DRSC18740,8,inactive
b6,DRSC24064,4,inactive
mthl11,DRSC12779,3,inactive
mthl11,DRSC28437,7,inactive
tsh,DRSC03740,4,inactive
CG16986,DRSC08502,14,inactive
sens,DRSC09263,9,inactive
sens,DRSC23086,15,inactive
Cyp6a16Psi (retired record),DRSC03307,3,inactive
baz,DRSC20309,5,inactive
baz,DRSC25558,7,inactive
SP,DRSC09664,6,inactive
Uggt,DRSC11315,3,inactive
CG17601,DRSC20639,4,inactive
CG32266,DRSC08062,8,inactive
CG32266,DRSC27644,3,inactive
CG18547,DRSC15345,6,inactive
CG10510,DRSC11614,7,inactive
CG4707,DRSC04483,6,inactive
CG8100,DRSC10961,5,inactive
CG1607,DRSC15130,7,inactive
CG1607,DRSC27010,9,inactive
CG17598,DRSC20636,3,inactive
CG17145,DRSC10247,3,inactive
gprs,DRSC06761,5,inactive
CG17036,DRSC02564,,inactive
CG17036,DRSC28145,2,inactive
Dok,DRSC18204,7,inactive
Dok,DRSC23455,5,inactive
MESK2 + CG10494,DRSC04259,4,inactive
CG5084,DRSC06913,10,inactive
CG5084,DRSC27650,2,inactive
CG33491 (retired record) + CG33496 (retired record) + CG33487 (retired record) + 1 more,DRSC22969,9,inactive
SamDC,DRSC03429,4,inactive
CG7084,DRSC16194,3,inactive
kek3,DRSC03553,4,inactive
kek3,DRSC22830,10,inactive
kek3,DRSC24250,3,inactive
plh,DRSC12294,5,inactive
btl,DRSC11331,6,inactive
btl,DRSC36653,7,inactive
CarT,DRSC03196,4,inactive
CarT,DRSC27070,2,inactive
Recs1,DRSC16545,2,inactive
Gk2,DRSC08610,5,inactive
CG13069,DRSC09952,3,inactive
CG4586,DRSC18373,12,inactive
mAcon1,DRSC01853,2,inactive
mAcon1,DRSC24875,3,inactive
CG3301,DRSC15471,,inactive
Tat,DRSC19602,12,inactive
px,DRSC23244,8,inactive
px,DRSC25863,2,inactive
CG1208,DRSC12190,9,inactive
Not1,DRSC06787,15,inactive
Not1,DRSC06794,13,inactive
CG13243,DRSC01920,5,inactive
CG14109,DRSC10112,5,inactive
CG14109,DRSC25337,6,inactive
CG15905,DRSC06591,5,inactive
Grl36b,DRSC01627,6,inactive
Rab23,DRSC12305,8,inactive
Rab23,DRSC25339,7,inactive
CG14646,DRSC12232,11,inactive
CG14646,DRSC21316,9,inactive
PCID2,DRSC10822,9,inactive
PCID2,DRSC29290,6,inactive
Ubc6,DRSC12370,16,inactive
Ubc6,DRSC28862,4,inactive
CG12010,DRSC08218,4,inactive
nxf4,DRSC12548,5,inactive
IntS4,DRSC17810,6,inactive
Ae2,DRSC08997,9,inactive
Ae2,DRSC10969,4,inactive
CG18171,DRSC08524,11,inactive
CG18171,DRSC26270,1,inactive
CG5404,DRSC15793,8,inactive
CG5404,DRSC28832,8,inactive
CG6280,DRSC06972,4,inactive
CaMKII,DRSC17214,4,inactive
CG31265,DRSC15745,5,inactive
CG31265,DRSC28592,6,inactive
VhaSFD,DRSC03471,5,inactive
Sf3b6,DRSC09972,10,inactive
Sf3b6,DRSC26462,9,inactive
Muc12Ea,DRSC19937,6,inactive
Muc12Ea,DRSC28059,4,inactive
Tsp42Ek,DRSC06187,5,inactive
CG17625,DRSC15249,6,inactive
Cdep,DRSC12028,13,inactive
Cdep,DRSC12220,6,inactive
Cdep,DRSC12291,6,inactive
CG18273,DRSC18150,11,inactive
CG18273,DRSC18505,8,inactive
comm3,DRSC09993,7,inactive
comm3,DRSC09994,2,inactive
comm3,DRSC09995,6,inactive
Sec24AB,DRSC06478,9,inactive
Sec24AB,DRSC25940,3,inactive
Pcif1,DRSC11655,7,inactive
Pcif1,DRSC24012,6,inactive
Roc2,DRSC07313,7,inactive
Roc2,DRSC27174,10,inactive
Wdr62,DRSC00081,4,inactive
Wdr62,DRSC21913,9,inactive
Oatp74D,DRSC09491,4,inactive
Oatp74D,DRSC10883,6,inactive
msl-2,DRSC00829,5,inactive
msl-2,DRSC28208,6,inactive
CG14196,DRSC19551,8,inactive
CG14196,DRSC26030,3,inactive
CG14007,DRSC02339,4,inactive
Srrm1,DRSC09835,3,inactive
CG31549,DRSC21688,12,inactive
CG11396,DRSC11654,5,inactive
Pak3,DRSC15017,5,inactive
Pak3,DRSC26832,5,inactive
Atu,DRSC12123,2,inactive
su(sable),DRSC18839,6,inactive
bw,DRSC04005,5,inactive
bw,DRSC04677,5,inactive
Ugt302E1,DRSC15635,8,inactive
Ugt302E1,DRSC29326,9,inactive
Awh,DRSC08140,4,inactive
Reck,DRSC10504,6,inactive
Reck,DRSC10505,3,inactive
MED17,DRSC16889,15,active
Ir51b,DRSC05540,9,inactive
Drsl5,DRSC08159,7,inactive
Adss,DRSC14162,8,inactive
Adss,DRSC30079,7,inactive
CG10053,DRSC12502,6,inactive
CG10053,DRSC29993,6,inactive
C1GalTA,DRSC03246,3,inactive
